Counter-ions that a name gives are not always drawn. The list shows a part of the results. The calls rarely recur for the same compound in another form.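 In K562 cells expressing nanoluciferase-fused kinases, luminescence was recorded at 4 h intervals between 2 and 18 h, normalized as percent of control with DMSO at 100% and a positive control at 0%. A significant (2 sigma) signal drop marks a time point as decreased. The authors' rule for a hit is not shown and takes in more than the number of time points.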
Experiments:
Assay in all cases: kinase-Nluc reporter destabilization hit call (1 = scored as downregulated) (binary); higher = compound decreases kinase abundance
Settings in all cases: K562; 2-18 h
IRAK3 = IRAK3 (UniProt Q9Y616)
JAK1 = JAK1 (UniProt P23458)
LCK = LCK (UniProt P06239)
LIMK1 = LIMK1 (UniProt P53667)
LIMK2 = LIMK2 (UniProt P53671)
LMTK2 = LMTK2 (UniProt Q8IWU2)
LYN = LYN (UniProt P07948)
MAP2K1 = MAP2K1 (UniProt Q02750)
MAP2K2 = MAP2K2 (UniProt P36507)
MAP4K2 = MAP4K2 (UniProt Q12851)
MAPK1 = MAPK1 (UniProt P28482)
MAPK4 = MAPK4 (UniProt P31152)
MAPKAPK2 = MAPKAPK2 (UniProt P49137)
MKNK1 = MKNK1 (UniProt Q9BUB5)
NTRK2 = NTRK2 (UniProt Q16620)
NTRK3 = NTRK3 (UniProt Q16288)
PAK4 = PAK4 (UniProt O96013)
PBK = PBK (UniProt Q96KB5)
PDGFRB = PDGFRB (UniProt P09619)
PDK1 = PDK1 (UniProt Q15118)

Sequences of proteins named here, by UniProt entry; tags and fusion partners are left off. A change or cut given only in a name is not applied to a line headed by its entry.
UniProt P23458: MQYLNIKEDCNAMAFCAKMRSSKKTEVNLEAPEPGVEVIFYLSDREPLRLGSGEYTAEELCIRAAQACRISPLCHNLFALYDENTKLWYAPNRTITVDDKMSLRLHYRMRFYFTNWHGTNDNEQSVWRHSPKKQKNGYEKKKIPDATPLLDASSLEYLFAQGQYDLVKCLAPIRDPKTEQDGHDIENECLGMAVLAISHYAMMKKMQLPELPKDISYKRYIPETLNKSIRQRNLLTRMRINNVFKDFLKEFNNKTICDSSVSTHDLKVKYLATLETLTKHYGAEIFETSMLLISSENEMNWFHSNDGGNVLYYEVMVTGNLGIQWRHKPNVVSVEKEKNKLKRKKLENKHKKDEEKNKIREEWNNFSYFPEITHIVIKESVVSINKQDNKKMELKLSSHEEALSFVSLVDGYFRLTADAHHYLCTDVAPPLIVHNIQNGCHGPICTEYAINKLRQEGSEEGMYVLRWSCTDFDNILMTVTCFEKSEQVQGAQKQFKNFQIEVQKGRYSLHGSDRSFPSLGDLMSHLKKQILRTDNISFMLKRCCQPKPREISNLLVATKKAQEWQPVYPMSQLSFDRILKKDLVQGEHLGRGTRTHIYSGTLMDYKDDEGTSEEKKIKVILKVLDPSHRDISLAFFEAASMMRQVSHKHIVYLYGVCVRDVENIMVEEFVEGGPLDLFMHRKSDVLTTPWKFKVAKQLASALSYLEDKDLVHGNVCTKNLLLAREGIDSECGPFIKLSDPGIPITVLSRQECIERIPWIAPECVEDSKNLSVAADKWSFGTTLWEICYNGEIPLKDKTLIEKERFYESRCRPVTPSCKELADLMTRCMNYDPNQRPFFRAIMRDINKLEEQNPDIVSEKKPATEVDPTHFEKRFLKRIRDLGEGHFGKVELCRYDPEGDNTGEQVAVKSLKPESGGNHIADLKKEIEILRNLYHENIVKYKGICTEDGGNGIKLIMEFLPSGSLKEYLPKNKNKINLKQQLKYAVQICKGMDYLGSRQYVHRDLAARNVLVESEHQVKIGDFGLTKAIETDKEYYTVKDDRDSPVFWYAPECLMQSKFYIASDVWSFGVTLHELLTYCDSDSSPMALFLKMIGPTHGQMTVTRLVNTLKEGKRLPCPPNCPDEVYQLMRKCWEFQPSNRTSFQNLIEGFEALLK
UniProt P06239: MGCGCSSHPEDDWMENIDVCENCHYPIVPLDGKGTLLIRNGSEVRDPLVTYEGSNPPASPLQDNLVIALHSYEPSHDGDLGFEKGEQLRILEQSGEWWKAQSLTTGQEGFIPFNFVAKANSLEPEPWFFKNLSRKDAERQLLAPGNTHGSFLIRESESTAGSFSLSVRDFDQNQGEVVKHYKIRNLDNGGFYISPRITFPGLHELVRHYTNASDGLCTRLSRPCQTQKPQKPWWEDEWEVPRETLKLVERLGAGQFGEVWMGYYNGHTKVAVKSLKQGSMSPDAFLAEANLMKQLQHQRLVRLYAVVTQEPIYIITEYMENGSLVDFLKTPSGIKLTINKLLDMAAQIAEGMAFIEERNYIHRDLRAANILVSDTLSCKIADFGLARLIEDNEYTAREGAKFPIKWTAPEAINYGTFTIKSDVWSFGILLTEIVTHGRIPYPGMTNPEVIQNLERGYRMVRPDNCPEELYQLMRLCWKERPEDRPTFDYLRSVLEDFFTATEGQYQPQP
UniProt P07948: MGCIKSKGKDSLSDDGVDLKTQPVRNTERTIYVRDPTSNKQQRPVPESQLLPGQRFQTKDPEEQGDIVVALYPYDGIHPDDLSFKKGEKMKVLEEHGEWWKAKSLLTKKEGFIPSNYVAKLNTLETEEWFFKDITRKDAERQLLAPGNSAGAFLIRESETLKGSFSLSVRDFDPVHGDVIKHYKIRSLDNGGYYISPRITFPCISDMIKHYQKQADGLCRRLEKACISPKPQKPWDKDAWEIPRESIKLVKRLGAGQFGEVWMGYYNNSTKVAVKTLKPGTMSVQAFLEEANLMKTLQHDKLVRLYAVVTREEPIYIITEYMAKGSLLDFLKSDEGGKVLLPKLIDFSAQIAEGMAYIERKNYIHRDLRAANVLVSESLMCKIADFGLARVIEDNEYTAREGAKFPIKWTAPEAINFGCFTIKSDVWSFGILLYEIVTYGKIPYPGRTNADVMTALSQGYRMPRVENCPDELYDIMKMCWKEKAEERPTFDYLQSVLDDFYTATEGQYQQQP
UniProt Q12851: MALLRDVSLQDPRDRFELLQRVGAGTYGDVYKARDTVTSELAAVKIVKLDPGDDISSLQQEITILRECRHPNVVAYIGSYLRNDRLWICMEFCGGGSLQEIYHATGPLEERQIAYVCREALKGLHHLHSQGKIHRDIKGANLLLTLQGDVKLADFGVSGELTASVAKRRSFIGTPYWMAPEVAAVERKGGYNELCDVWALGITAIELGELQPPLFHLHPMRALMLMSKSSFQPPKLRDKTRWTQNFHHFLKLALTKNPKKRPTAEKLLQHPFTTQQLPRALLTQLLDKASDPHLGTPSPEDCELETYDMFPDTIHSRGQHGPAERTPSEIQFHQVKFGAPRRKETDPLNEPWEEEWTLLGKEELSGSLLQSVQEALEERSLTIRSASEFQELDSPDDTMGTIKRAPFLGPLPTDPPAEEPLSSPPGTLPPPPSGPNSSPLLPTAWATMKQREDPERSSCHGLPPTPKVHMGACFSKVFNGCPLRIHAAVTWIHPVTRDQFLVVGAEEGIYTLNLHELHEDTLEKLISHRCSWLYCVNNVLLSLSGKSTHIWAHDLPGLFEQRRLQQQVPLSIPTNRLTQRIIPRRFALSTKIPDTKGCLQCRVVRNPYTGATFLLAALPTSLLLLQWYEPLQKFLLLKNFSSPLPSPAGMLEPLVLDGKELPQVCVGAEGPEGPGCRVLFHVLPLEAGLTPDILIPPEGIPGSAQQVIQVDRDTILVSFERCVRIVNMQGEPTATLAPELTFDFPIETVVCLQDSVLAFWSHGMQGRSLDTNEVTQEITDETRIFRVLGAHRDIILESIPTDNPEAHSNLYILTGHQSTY
UniProt P31152, whole entry: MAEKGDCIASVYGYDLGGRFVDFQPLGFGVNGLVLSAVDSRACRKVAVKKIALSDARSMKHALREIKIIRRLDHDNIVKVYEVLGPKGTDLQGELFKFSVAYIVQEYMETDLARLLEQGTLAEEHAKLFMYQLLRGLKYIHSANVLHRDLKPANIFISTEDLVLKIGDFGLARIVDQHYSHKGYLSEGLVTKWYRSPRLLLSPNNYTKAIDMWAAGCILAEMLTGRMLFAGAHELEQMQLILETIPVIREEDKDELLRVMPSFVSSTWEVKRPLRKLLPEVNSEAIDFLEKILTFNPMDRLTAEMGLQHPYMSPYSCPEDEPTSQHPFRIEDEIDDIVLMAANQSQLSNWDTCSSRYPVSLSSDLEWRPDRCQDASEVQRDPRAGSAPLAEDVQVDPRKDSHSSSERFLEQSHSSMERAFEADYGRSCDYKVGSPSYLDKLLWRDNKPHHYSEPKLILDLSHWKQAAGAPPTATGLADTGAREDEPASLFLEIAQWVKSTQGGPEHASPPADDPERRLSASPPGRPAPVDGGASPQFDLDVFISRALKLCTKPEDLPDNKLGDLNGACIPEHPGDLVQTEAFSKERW
UniProt Q9BUB5: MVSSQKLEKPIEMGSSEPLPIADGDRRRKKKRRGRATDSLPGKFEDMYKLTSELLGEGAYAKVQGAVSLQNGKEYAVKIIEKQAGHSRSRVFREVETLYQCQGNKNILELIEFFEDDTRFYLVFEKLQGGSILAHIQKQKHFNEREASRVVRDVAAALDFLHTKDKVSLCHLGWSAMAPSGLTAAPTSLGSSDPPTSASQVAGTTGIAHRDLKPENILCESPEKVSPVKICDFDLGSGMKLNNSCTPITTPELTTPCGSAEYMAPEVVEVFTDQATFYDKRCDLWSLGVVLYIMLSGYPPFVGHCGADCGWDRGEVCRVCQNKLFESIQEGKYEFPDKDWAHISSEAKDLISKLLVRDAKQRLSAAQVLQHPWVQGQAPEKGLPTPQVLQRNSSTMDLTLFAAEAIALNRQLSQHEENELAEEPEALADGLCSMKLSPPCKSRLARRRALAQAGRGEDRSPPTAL
UniProt Q16288, whole entry, looked up: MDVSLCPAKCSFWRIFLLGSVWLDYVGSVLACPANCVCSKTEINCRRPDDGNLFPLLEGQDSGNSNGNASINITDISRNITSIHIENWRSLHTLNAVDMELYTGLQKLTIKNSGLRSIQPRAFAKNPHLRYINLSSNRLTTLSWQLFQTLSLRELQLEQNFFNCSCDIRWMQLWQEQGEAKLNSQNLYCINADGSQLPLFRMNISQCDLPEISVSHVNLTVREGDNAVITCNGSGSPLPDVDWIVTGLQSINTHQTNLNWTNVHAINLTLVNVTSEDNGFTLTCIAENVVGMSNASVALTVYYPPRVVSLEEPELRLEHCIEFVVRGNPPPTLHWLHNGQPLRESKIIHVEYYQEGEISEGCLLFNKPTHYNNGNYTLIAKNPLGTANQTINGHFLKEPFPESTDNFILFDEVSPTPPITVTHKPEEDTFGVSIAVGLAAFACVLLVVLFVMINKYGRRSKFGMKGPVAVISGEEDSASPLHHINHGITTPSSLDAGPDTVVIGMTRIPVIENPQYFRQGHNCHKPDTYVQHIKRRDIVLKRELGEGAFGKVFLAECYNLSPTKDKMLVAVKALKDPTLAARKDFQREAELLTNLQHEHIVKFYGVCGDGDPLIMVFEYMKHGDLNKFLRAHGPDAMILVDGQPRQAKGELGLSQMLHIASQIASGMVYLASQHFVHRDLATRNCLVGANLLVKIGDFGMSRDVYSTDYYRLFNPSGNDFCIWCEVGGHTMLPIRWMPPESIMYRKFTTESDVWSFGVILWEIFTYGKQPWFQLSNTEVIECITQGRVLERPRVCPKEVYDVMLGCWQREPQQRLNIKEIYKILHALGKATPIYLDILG
UniProt O96013: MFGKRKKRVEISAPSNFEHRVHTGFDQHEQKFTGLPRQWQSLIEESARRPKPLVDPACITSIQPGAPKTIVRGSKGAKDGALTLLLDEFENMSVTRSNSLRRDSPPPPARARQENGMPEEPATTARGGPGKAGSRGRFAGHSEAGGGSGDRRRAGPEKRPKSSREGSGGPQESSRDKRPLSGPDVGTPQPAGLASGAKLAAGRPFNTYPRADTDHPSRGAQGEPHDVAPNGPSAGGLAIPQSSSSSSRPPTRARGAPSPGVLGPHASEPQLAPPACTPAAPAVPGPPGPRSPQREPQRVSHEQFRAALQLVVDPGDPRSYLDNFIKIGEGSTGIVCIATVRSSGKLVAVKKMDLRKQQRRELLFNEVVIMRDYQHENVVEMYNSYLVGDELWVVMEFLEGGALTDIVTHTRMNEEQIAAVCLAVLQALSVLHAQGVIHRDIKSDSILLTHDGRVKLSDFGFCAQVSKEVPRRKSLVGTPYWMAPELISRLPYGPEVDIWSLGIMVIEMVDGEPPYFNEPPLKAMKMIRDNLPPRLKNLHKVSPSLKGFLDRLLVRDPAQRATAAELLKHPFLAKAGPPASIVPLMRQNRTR
UniProt P09619, whole entry: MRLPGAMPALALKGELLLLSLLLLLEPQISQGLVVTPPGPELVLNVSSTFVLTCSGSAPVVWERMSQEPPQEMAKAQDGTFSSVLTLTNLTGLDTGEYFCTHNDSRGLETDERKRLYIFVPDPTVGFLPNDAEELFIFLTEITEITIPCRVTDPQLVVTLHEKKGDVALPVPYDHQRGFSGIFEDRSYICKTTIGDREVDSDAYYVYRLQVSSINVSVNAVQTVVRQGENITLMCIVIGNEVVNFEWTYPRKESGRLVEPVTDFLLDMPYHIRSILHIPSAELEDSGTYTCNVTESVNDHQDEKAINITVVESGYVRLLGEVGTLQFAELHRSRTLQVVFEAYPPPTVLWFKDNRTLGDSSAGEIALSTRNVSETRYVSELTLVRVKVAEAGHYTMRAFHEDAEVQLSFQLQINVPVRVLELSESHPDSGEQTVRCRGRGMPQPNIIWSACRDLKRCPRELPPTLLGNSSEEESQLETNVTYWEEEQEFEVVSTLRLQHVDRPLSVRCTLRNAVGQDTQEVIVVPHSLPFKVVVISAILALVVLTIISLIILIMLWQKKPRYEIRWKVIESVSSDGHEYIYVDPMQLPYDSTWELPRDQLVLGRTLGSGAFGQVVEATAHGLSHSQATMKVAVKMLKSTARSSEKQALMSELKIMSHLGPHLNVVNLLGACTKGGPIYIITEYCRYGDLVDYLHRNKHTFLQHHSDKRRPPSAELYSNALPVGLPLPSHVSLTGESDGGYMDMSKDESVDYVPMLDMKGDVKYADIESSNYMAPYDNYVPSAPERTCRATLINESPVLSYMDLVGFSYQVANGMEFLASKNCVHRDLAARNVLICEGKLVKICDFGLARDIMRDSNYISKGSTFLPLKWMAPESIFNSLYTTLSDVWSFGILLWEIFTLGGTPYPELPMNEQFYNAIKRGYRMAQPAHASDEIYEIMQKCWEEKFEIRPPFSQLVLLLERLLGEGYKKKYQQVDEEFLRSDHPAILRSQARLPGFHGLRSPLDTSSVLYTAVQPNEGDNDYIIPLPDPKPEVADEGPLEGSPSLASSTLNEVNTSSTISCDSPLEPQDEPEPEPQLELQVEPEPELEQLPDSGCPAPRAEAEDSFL

Row | Compound | kinase-Nluc reporter destabilization hit call (IRAK3) | kinase-Nluc reporter destabilization hit call (JAK1) | kinase-Nluc reporter destabilization hit call (LCK) | kinase-Nluc reporter destabilization hit call (LIMK1) | kinase-Nluc reporter destabilization hit call (LIMK2) | kinase-Nluc reporter destabilization hit call (LMTK2) | kinase-Nluc reporter destabilization hit call (LYN) | kinase-Nluc reporter destabilization hit call (MAP2K1) | kinase-Nluc reporter destabilization hit call (MAP2K2) | kinase-Nluc reporter destabilization hit call (MAP4K2) | kinase-Nluc reporter destabilization hit call (MAPK1) | kinase-Nluc reporter destabilization hit call (MAPK4) | kinase-Nluc reporter destabilization hit call (MAPKAPK2) | kinase-Nluc reporter destabilization hit call (MKNK1) | kinase-Nluc reporter destabilization hit call (NTRK2) | kinase-Nluc reporter destabilization hit call (NTRK3) | kinase-Nluc reporter destabilization hit call (PAK4) | kinase-Nluc reporter destabilization hit call (PBK) | kinase-Nluc reporter destabilization hit call (PDGFRB) | kinase-Nluc reporter destabilization hit call (PDK1)
1 | COc1ccc2c(OCc3nnc4ccc(-c5ccccc5)nn34)ccnc2c1 (2 µM) | inactive: 0 | inactive: 0 | inactive: 0 | inactive: 0 | inactive: 0 | inactive: 0 | inactive: 0 | inactive: 0 | inactive: 0 | inactive: 0 | inactive: 0 | inactive: 0 | inactive: 0 | inactive: 0 | inactive: 0 | inactive: 0 | inactive: 0 | inactive: 0 | inactive: 0 | inactive: 0
2 | Cc1cc2ncc(-c3ccc(O)c(O)c3)nc2cc1C [Tyrphostin AG1433] (10 µM) | inactive: 0 | inactive: 0 | inactive: 0 | inactive: 0 | inactive: 0 | inactive: 0 | inactive: 0 | inactive: 0 | inactive: 0 | inactive: 0 | inactive: 0 | inactive: 0 | inactive: 0 | inactive: 0 | inactive: 0 | inactive: 0 | inactive: 0 | inactive: 0 | inactive: 0 | inactive: 0
3 | COc1cc(/C=C/C(=O)NCC(O)c2ccc(O)cc2)ccc1O (stereo not given) [N-Feruloyloctopamine] (2.5 µM) | inactive: 0 | inactive: 0 | inactive: 0 | inactive: 0 | inactive: 0 | inactive: 0 | inactive: 0 | inactive: 0 | inactive: 0 | inactive: 0 | inactive: 0 | inactive: 0 | inactive: 0 | inactive: 0 | inactive: 0 | inactive: 0 | inactive: 0 | inactive: 0 | inactive: 0 | inactive: 0
4 | O=S(=O)(NCCCN1c2ccccc2CCc2ccc(Cl)cc21)c1ccc(OC(F)(F)F)cc1 (2.5 µM) | inactive: 0 | inactive: 0 | inactive: 0 | inactive: 0 | inactive: 0 | inactive: 0 | inactive: 0 | inactive: 0 | inactive: 0 | inactive: 0 | inactive: 0 | inactive: 0 | inactive: 0 | inactive: 0 | inactive: 0 | inactive: 0 | inactive: 0 | inactive: 0 | inactive: 0 | inactive: 0
5 | Nc1ncnc2c1c(-c1cccc(OCc3ccccc3)c1)cn2C1CC(CN2CCC2)C1 (stereo not given) (2.5 µM) | inactive: 0 | inactive: 0 | inactive: 0 | inactive: 0 | inactive: 0 | inactive: 0 | inactive: 0 | inactive: 0 | inactive: 0 | inactive: 0 | inactive: 0 | inactive: 0 | inactive: 0 | inactive: 0 | inactive: 0 | inactive: 0 | inactive: 0 | inactive: 0 | inactive: 0 | inactive: 0
6 | CC(C)(C)c1nc(-c2cccc(NS(=O)(=O)c3c(F)cccc3F)c2F)c(-c2ccnc(N)n2)s1 [Dabrafenib] (2.5 µM) | inactive: 0 | inactive: 0 | inactive: 0 | active: 1 | inactive: 0 | inactive: 0 | inactive: 0 | inactive: 0 | inactive: 0 | inactive: 0 | inactive: 0 | inactive: 0 | inactive: 0 | inactive: 0 | inactive: 0 | inactive: 0 | inactive: 0 | inactive: 0 | inactive: 0 | inactive: 0
7 | Cc1nc2sccn2c(=O)c1CCN1CCC(=C(c2ccccc2)c2ccc(F)cc2)CC1 (10 µM) | inactive: 0 | inactive: 0 | inactive: 0 | inactive: 0 | inactive: 0 | inactive: 0 | inactive: 0 | inactive: 0 | inactive: 0 | inactive: 0 | inactive: 0 | inactive: 0 | inactive: 0 | inactive: 0 | inactive: 0 | inactive: 0 | inactive: 0 | inactive: 0 | inactive: 0 | inactive: 0
8 | Cc1ccc(OCCSc2ncccn2)c(Br)c1 [ZLN024 (hydrochloride)] (10 µM) | inactive: 0 | inactive: 0 | inactive: 0 | inactive: 0 | inactive: 0 | inactive: 0 | inactive: 0 | inactive: 0 | inactive: 0 | inactive: 0 | inactive: 0 | inactive: 0 | inactive: 0 | inactive: 0 | inactive: 0 | inactive: 0 | inactive: 0 | inactive: 0 | inactive: 0 | inactive: 0
9 | CCN1CCC(n2cc(CNc3cc(Cl)c4ncc(C#N)c(Nc5ccc(F)c(Cl)c5)c4c3)nn2)CC1 [Cot inhibitor-2] (2.5 µM) | inactive: 0 | inactive: 0 | inactive: 0 | inactive: 0 | inactive: 0 | inactive: 0 | inactive: 0 | inactive: 0 | inactive: 0 | inactive: 0 | inactive: 0 | inactive: 0 | inactive: 0 | inactive: 0 | inactive: 0 | inactive: 0 | inactive: 0 | inactive: 0 | inactive: 0 | inactive: 0
